According to paper PMC5036054:
No constants are given. Whether binding was seen depends on the method and setting. Binding seen in cells or lysates may run through a third protein. Some entries that bind do so weakly or less than the wild type.

Protein sequences, listed by entry. Tags and fused reporters are not part of them. Residues count along the entry.
UniProt P09055, residues 21-798: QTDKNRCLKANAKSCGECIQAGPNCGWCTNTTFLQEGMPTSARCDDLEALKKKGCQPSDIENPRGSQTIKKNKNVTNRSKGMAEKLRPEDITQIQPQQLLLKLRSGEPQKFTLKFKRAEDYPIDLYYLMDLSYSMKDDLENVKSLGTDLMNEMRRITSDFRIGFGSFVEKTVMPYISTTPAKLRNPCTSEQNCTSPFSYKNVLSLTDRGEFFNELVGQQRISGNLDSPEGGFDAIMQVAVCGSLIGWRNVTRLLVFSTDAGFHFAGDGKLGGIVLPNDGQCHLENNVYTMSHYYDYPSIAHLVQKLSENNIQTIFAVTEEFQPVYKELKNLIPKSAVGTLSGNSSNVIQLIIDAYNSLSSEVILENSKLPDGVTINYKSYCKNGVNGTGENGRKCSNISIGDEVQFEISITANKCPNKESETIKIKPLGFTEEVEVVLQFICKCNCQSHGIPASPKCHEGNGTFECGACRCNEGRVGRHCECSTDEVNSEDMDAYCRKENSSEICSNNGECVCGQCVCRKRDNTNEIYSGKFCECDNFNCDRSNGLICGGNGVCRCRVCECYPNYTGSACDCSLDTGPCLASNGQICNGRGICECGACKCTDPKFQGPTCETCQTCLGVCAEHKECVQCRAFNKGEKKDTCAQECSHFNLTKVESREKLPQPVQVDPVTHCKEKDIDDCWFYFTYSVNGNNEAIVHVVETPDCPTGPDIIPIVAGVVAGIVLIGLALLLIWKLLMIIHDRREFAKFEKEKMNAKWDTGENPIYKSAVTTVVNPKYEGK

Molecular target: β1 integrin subunit (mouse (endogenous in C57BL/6 sperm)) (UniProt P09055)
Test: proximity ligation; Duolink in situ PLA on formaldehyde-fixed smears of C57BL/6 mouse sperm, freshly released and after calcium ionophore-induced acrosome reaction; two primary antibodies from different species, read by fluorescence microscopy

- binding: binds
B1: CD46 (membrane cofactor protein, MCP) (protein, UniProt O88174 45-365)
chain: CELPRPFEAMELKGTPKLFYAVGEKIEYKCKKGYLYLSPYLMIATCEPNHTWVPISDAGCIKVQCTMLQDPSFGKVYYIDGSFSWGARAKFTCMEGYYVVGMSVLHCVLKGDDEAYWNGYPPHCEKIYCLPPPKIKNGTHTLTDINVFKYHEAVSYSCDPTPGPDKFSLVGTSMIFCAGHNTWSNSPPECKVVKCPNPVLQNGRLISGAGEIFSYQSTVMFECLQGFYMEGSSMVICSANNSWEPSIPKCLKGPRPTHPTKPPVYNYTGYPSPREGIFSQELDAWIIALIVITSIVGVFILCLIVLRCFEHRKKTNVSAAR
